{"source": "PubChem BioAssay AID1508597, Cure First | 2020", "purpose": "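Survival screen with siRNA in ovarian cancer cells derived from patients, with or without rucaparib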 (primary screen)", "system": "human ovarian carcinoma lines grown from tumours: OCI-P5x (papillary serous) and OCI-C5x (clear cell)", "knock-down reagent": "siRNA pool against human genes, 1.25 pmol siRNA per well", "timing": "72 h or 96 h, depending on the cell culture", "conditions": "rucaparib 20 µM (about IC30) or vehicle, present until read-out", "rucaparib or vehicle": "Rucaparib", "cell line": "OCI-C5x (clear cell)", "read-out": "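ATP luminescence measured at 72 or 96 h according to the culture, then normalised and expressed as percent viability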", "direction": "viability, normalised: higher = more viable cells remaining", "hit rule": "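Active when normalised viability falls below 80 percent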", "calls": "active = viability under 80%; inactive = viability 80% or more", "note": "This is a random part of the about 2,100 reagents, under one of the conditions tested. 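Calls flag viability under 80% in either arm, not effects specific to rucaparib; the reference for percent is not stated.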 Some reagents were tested in more than one well and are listed for each. Reagent sequences are not shown. Not stated in the record: the 100% reference."}
{"gene knocked down": "DDX49", "technical replicate": "1", "viability, normalised (%)": 55.3, "call": "active"}
{"gene knocked down": "DDX49", "technical replicate": "2", "viability, normalised (%)": 53.5, "call": "active"}
{"gene knocked down": "DDX49", "technical replicate": "3", "viability, normalised (%)": 35.7, "call": "active"}
{"gene knocked down": "MAP2K3", "technical replicate": "1", "viability, normalised (%)": 43.6, "call": "active"}
{"gene knocked down": "MAP2K3", "technical replicate": "1", "viability, normalised (%)": 49.6, "call": "active"}
{"gene knocked down": "MAP2K3", "technical replicate": "2", "viability, normalised (%)": 66.4, "call": "active"}
{"gene knocked down": "MAP2K3", "technical replicate": "2", "viability, normalised (%)": 49.5, "call": "active"}
{"gene knocked down": "MAP2K3", "technical replicate": "3", "viability, normalised (%)": 55, "call": "active"}
{"gene knocked down": "MAP2K3", "technical replicate": "3", "viability, normalised (%)": 63.7, "call": "active"}
{"gene knocked down": "SIRT7", "technical replicate": "1", "viability, normalised (%)": 38.5, "call": "active"}
{"gene knocked down": "SIRT7", "technical replicate": "2", "viability, normalised (%)": 39.2, "call": "active"}
{"gene knocked down": "SIRT7", "technical replicate": "3", "viability, normalised (%)": 33.9, "call": "active"}
{"gene knocked down": "POLD4", "technical replicate": "1", "viability, normalised (%)": 40.4, "call": "active"}
{"gene knocked down": "POLD4", "technical replicate": "2", "viability, normalised (%)": 56.9, "call": "active"}
{"gene knocked down": "POLD4", "technical replicate": "3", "viability, normalised (%)": 42.6, "call": "active"}
{"gene knocked down": "GDPD3", "technical replicate": "1", "viability, normalised (%)": 60.8, "call": "active"}
{"gene knocked down": "GDPD3", "technical replicate": "2", "viability, normalised (%)": 49.2, "call": "active"}
{"gene knocked down": "GDPD3", "technical replicate": "3", "viability, normalised (%)": 39.6, "call": "active"}
{"gene knocked down": "ACVR2B", "technical replicate": "1", "viability, normalised (%)": 46.7, "call": "active"}
{"gene knocked down": "ACVR2B", "technical replicate": "2", "viability, normalised (%)": 34.9, "call": "active"}
{"gene knocked down": "ACVR2B", "technical replicate": "3", "viability, normalised (%)": 38.1, "call": "active"}
{"gene knocked down": "BUB1", "technical replicate": "1", "viability, normalised (%)": 53.9, "call": "active"}
{"gene knocked down": "BUB1", "technical replicate": "1", "viability, normalised (%)": 51.7, "call": "active"}
{"gene knocked down": "BUB1", "technical replicate": "2", "viability, normalised (%)": 51.9, "call": "active"}
{"gene knocked down": "BUB1", "technical replicate": "2", "viability, normalised (%)": 46.6, "call": "active"}
{"gene knocked down": "BUB1", "technical replicate": "3", "viability, normalised (%)": 54.1, "call": "active"}
{"gene knocked down": "BUB1", "technical replicate": "3", "viability, normalised (%)": 62.6, "call": "active"}
{"gene knocked down": "DDA1", "technical replicate": "1", "viability, normalised (%)": 62.4, "call": "active"}
{"gene knocked down": "DDA1", "technical replicate": "2", "viability, normalised (%)": 66.3, "call": "active"}
{"gene knocked down": "DDA1", "technical replicate": "3", "viability, normalised (%)": 63.1, "call": "active"}
{"gene knocked down": "GADD45A", "technical replicate": "1", "viability, normalised (%)": 68, "call": "active"}
{"gene knocked down": "GADD45A", "technical replicate": "2", "viability, normalised (%)": 82.8, "call": "inactive"}
{"gene knocked down": "GADD45A", "technical replicate": "3", "viability, normalised (%)": 90.4, "call": "inactive"}
